From PubChem BioAssay AID504467 (National Center for Advancing Translational Sciences (NCATS), 2011)
Screen size: about 330,000 compounds; about 7,700 (2.3%) were called active. Inconclusive results, whose numbers are uncertain, are shown with a selection of clear calls. Calls follow the shape of the dose curve; as a rule, active = well fitted inhibition curve with a large enough effect; inconclusive = small, poorly fitted or top-dose-only effect, or effect the other way; inactive = flat fitted curve, though single readings scatter. Where the call is inconclusive, the potency comes from a doubtful curve fit.

Test: qHTS screen for small molecules that inhibit ELG1-dependent DNA repair in human embryonic kidney (HEK293T) cells expressing luciferase-tagged ELG1; also: nearly all actives have a fitted effect of over 55% in size
Conditions: HEK293T ELG1-luciferase reporter, luminescence, 16 h, DNA damage induced by 5-fluorouridine; series mostly up to 46.1 µM
Summary of the method: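 5-Fluorouridine DNA damage + compound/DMSO, 2,000 cells/well, 16 h, 37 °C/5% CO2. ONE-Glo, 30 min RT, luminescence. Readout = decrease in reporter signal.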
Potency is read from the fitted curve at half-maximal effect.

SMILES	Potency
CCCS(=O)(=O)N1CCC(C(=O)NCCCOC)CC1	inactive
CC(C)Cn1c(SCC(=O)Nc2cccc(S(N)(=O)=O)c2)nc2ccccc2c1=O	active: 16.4 µM
O=C(Nc1cccnc1)c1ccc(Cl)c(S(=O)(=O)N2CCCC2)c1	inconclusive: 29.1 µM [inhibitor, single point]
COc1ccc(NC(=O)C(=O)NCCCO)cc1Cl	inconclusive: 25.9 µM [activator, single point]
C=CCOc1ccc(C(=O)NC2CCCCC2)cc1	inconclusive: 10.3 µM [activator, partial curve]
Cc1nc2ccc(NC(=O)Cc3c(F)cccc3Cl)cc2s1	inconclusive: 9.2 µM [activator, partial curve]
CC(=O)Nc1ccc(S(=O)(=O)NNC2=NS(=O)(=O)c3ccccc32)cc1	inactive
CCCN(Cc1nnc(-c2ccccc2Cl)o1)C(=O)COc1ccc(Cl)cc1	inactive
O=C(CCCN1C(=O)/C(=C/c2ccccc2OC(F)F)SC1=S)Nc1cccnc1	active: 20.6 µM
Cc1ccc(NS(=O)(=O)c2ccc(Cl)c(NC(=S)NC(=O)C3CCCCC3)c2)cc1Cl	inactive
Cc1ccc(CNC(=O)C2CCN(S(=O)(=O)c3cccs3)CC2)o1	inactive
O=C(O)/C(=C\c1ccccc1OC(F)F)Sc1nnc(-c2ccc(F)cc2)o1	inconclusive: 29.1 µM [inhibitor, single point]
COc1cccc(N2CCN(C(=O)c3cc(-c4ccc(F)cc4)[nH]c3C)CC2)c1	active: 20.6 µM
N/C(=N\OC(=O)Nc1ccc(Cl)cc1)c1ncc(C(F)(F)F)cc1Cl	inconclusive: 18.4 µM [activator, single point]
CCCOc1ccc(C(=O)CCC(=O)OC(C)C(=O)Nc2ccc(NC(C)=O)cc2)cc1 (stereo unspecified)	inconclusive: 25.9 µM [activator, single point]
O=C(O)CCn1c(SCc2cc(=O)n3ccccc3n2)nc2ccsc2c1=O	inconclusive: 1.16 µM [activator, single point]
Cc1ccc2nc(-c3cccc(N)c3)[nH]c2c1	inconclusive: 1.16 µM [activator, partial curve]
N=c1c2c(-c3ccccc3)c(-c3ccccc3)n(Cc3ccccc3)c2ncn1CCCn1ccnc1	inconclusive: 20.6 µM [inhibitor, single point]
CC(C)c1ccc(/C=C2\NC(=O)NC2=O)cc1	inconclusive: 29.1 µM [activator, single point]
COc1ccc(CCNC(=O)CCNC(=O)N2CC(=O)Nc3ccccc32)cc1OC	inconclusive: 16.4 µM [activator, partial curve, poor fit]
COc1ccc(/C=C/C(=O)c2ccc3c4c(cccc24)CC3)cc1OC	inconclusive: 25.9 µM [inhibitor, single point]
O=C(CSc1nnnn1-c1ccccc1F)Nc1nc2ccccc2s1	inconclusive: 23.1 µM [activator, single point]
COc1ccc2c(c1)CCc1c(C(=O)NCc3ccc(Cl)cc3)noc1-2	inconclusive: 29.1 µM [activator, single point]
C=CCNc1nc(Cl)ncc1F	inconclusive: 18.4 µM [activator, partial curve, poor fit]

SMILES	Potency
CCCCn1c(O)c(N=NC(=O)c2ccccc2NS(=O)(=O)c2cccs2)c2ccccc21	inconclusive: 10.3 µM [inhibitor, partial curve, poor fit]
Cc1ccccc1C(=O)NC(CC(C)C)C(=O)Nc1cccc(S(=O)(=O)N(C)C)c1 (stereo unspecified)	inconclusive: 32.6 µM [activator, single point]
CCCCn1c(=N)n(CC(=O)c2ccc(Br)s2)c2ccccc21	inconclusive: 18.3 µM [inhibitor, partial curve]
O=C(CNC(=O)c1sc2ccccc2c1Cl)NCc1ccc(F)cc1	inactive
O=C1C(Cl)=C(NCCN2CCCCC2)C(=O)c2ccccc21	active: 20.6 µM
CCOC(=O)c1sc(NC(=O)CS(=O)(=O)c2ccc(C)cc2)nc1C	inconclusive: 20.6 µM [inhibitor, partial curve, poor fit]
COc1ccccc1NC(=O)Nc1nc(CC(=O)N2CCN(c3ccccc3)CC2)cs1	inconclusive: 20.6 µM [inhibitor, partial curve, poor fit]
CCN(CC)c1ccc(NC(=O)CCS(=O)(=O)c2ccc(Br)cc2)c(C)c1	inactive
CC(=O)c1ccccc1-c1csc2ncnc(Sc3nnnn3C)c12	inconclusive: 20.6 µM [inhibitor, single point]
N#C/C(=C\N1CCN(Cc2ccc3c(c2)OCO3)CC1)c1nc2ccccc2s1	inconclusive: 32.6 µM [inhibitor, single point]
Cc1c(O)ccc(C(=O)CN2CCN(Cc3ccc4c(c3)OCO4)CC2)c1O	inconclusive: 29.1 µM [inhibitor, single point]
NS(=O)(=O)c1ccc(CCNC(=O)c2ccc3ccccc3n2)cc1	inconclusive: 29.1 µM [activator, single point]
O=C1/C(=C/c2cccnc2)SC(=S)N1C1CCS(=O)(=O)C1 (stereo unspecified)	inconclusive: 23.1 µM [inhibitor, partial curve]
O=C(Nc1ccc(C(=O)O)cc1)/C(=C\c1ccco1)NC(=O)c1ccccc1	inactive
Cc1csc(NC(=O)c2ccc(Cl)nc2)n1	inconclusive: 18.3 µM [activator, partial curve]
COc1ccccc1N1CCN(C(=O)CSc2nc(N)cc(=O)[nH]2)CC1	inactive
C/C(=N\NC(=S)NC1CCCCC1)c1ccc(C#N)cc1	inactive
O=C(CN1CCCCCC1)Nc1ccccc1Cl	inactive
O=C(NC1CC1)C1=C[C@@H](c2c[nH]c3ccccc23)C[C@@H](OCc2ccc(CO)cc2)O1	inactive
CCc1ccccc1N(CC(=O)N1CCN(c2ccc(F)cc2)CC1)S(C)(=O)=O	inactive
CCOc1ccc(NC(=O)CCNC(=O)Cn2ccc3ccccc3c2=O)cc1	inactive
CC1(c2ccc(Cl)cc2Cl)NC(=O)N(CC(=O)Nc2ccc3[nH]c(=O)[nH]c3c2)C1=O (stereo unspecified)	inconclusive: 29.1 µM [activator, single point]
CN(CC(=O)Nc1nc2ccc(F)cc2s1)S(=O)(=O)c1ccc(Cl)cc1	inconclusive: 20.6 µM [inhibitor, single point]
CC(C)CC(=O)NC(=S)N1CCN(c2ccc([N+](=O)[O-])cc2Cl)CC1	inconclusive: 20.6 µM [inhibitor, partial curve, poor fit]

An excerpt of these results, in CSV form:
SMILES,Potency
Cc1ccccc1C(=O)NC(CC(C)C)C(=O)Nc1cccc(S(=O)(=O)N(C)C)c1 (stereo unspecified),"inconclusive: 32.6 µM [activator, single point]"
Cc1c(O)ccc(C(=O)CN2CCN(Cc3ccc4c(c3)OCO4)CC2)c1O,"inconclusive: 29.1 µM [inhibitor, single point]"
C/C(=N\NC(=S)NC1CCCCC1)c1ccc(C#N)cc1,inactive
CCc1ccccc1N(CC(=O)N1CCN(c2ccc(F)cc2)CC1)S(C)(=O)=O,inactive
CC(C)CC(=O)NC(=S)N1CCN(c2ccc([N+](=O)[O-])cc2Cl)CC1,"inconclusive: 20.6 µM [inhibitor, partial curve, poor fit]"

Next records follow:

SMILES	Potency
CCOC(=O)c1c(S(=O)(=O)NCC(=O)N2CCN(c3ccccc3OC)CC2)c(C)n(C)c1C	inactive
Cc1ccc(Nc2nc(COC(=O)C3CC3)cs2)cc1	inconclusive: 13 µM [activator, partial curve]
CC1CCN(CC2C(=O)O[C@@H]3C[C@@]4(C)CCC[C@H](C)C4=C[C@H]23)CC(C)(C)C1 (stereo partly specified)	inactive
Cc1nc2ccccn2c1C(=O)/C=C/c1ccc(F)cc1	inconclusive: 0.651 µM [activator, partial curve, poor fit]
COc1cc(OC)c(C(=O)OCC(=O)NC2CCCC2)cc1OC	inactive
OCCOCCNc1ncnc2sc(-c3ccccc3)cc12	inconclusive: 14.6 µM [inhibitor, partial curve]
S=c1nc2ccccc2c2nc(-c3ccccc3)[nH]n12	inconclusive: 16.4 µM [activator, partial curve]
Cc1cc(NCCN2CCOCC2)n2nc(C)c(-c3ccccc3)c2n1	inactive
CCOc1ccc2c(c1)c(N=O)c(O)n2C	inactive
COc1ccccc1Nc1ncnc2nc[nH]c12	inconclusive: 18.4 µM [inhibitor, partial curve]
CCN(CC)C(=O)CSC1=C(C#N)C(c2cccs2)C=C(C)N1 (stereo unspecified)	inactive
CC(=O)c1ccc(S(=O)(=O)N2CCN(c3ccccc3F)CC2)cc1	inconclusive: 5.17 µM [inhibitor, partial curve, poor fit]
CCC(C)[C@H](NC(=O)NCc1cccc(OC)c1)C(=O)OC (stereo partly specified)	inactive
CC[C@]12c3[nH]c4cc(CCC(=O)N(C)C)ccc4c3CCN1C(=O)[C@@H](CC(=O)NC(C)(C)C)C[C@@H]2C(=O)N1CCN(C(=O)c2ccco2)CC1	inconclusive: 18.3 µM [activator, single point]
CC(NC(=O)Nc1ccc(Br)cc1)C(C)(C)C (stereo unspecified)	inconclusive: 0.73 µM [inhibitor, full curve]
Cc1cc([N+](=O)[O-])ccc1NCc1ccc2c(c1)OCCO2	inactive
Cc1cc(-c2cccc([N+](=O)[O-])c2)nc2ccccc12	inconclusive: 18.4 µM [activator, single point]
CCOC(=O)Cc1csc(NC(=O)COc2ccccc2OC)n1	inactive
CC(=O)Nc1ccc(NC(=O)CN(c2cccc([N+](=O)[O-])c2)S(C)(=O)=O)cc1	inconclusive: 10.3 µM [inhibitor, partial curve]
COC(=O)c1ccccc1NC(=O)N1CCN(c2ccccc2)CC1	inactive
Cc1ccc(NC(=O)c2sc3nc(C)nc(N4CCN(c5ccccn5)CC4)c3c2C)c(C)c1	inconclusive: 14.6 µM [inhibitor, partial curve]
CC(C)(C)n1nnnc1C(c1ccncc1)N1CCN(C2CCCCC2)CC1 (stereo unspecified)	inactive
CCOC(=O)N1CCN(C(=O)c2ccccc2NC(C)=O)CC1	inconclusive: 29.1 µM [activator, single point]
